Assay results published in paper PMC11650725.
Like-named read-outs stand apart in the source and are kept apart here. These are yes or no findings as the source states them, for the method shown. For some assays here: Binding seen in cells or lysates may run through a third protein. Some entries that bind do so weakly or less than the wild type. Blank lines part the entries; values can stand above or below the molecule they belong to.

Protein sequences, listed by entry. Tags and fused reporters are not part of them. Residues count along the entry.
UniProt P12004: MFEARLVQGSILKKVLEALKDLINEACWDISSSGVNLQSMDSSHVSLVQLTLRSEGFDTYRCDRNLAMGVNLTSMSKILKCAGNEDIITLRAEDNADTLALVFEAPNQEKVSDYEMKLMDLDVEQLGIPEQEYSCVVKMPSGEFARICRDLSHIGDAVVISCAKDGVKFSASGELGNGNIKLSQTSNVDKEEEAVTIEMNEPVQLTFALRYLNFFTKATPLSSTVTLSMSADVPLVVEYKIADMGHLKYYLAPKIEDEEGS
UniProt P02769, residues 25-607: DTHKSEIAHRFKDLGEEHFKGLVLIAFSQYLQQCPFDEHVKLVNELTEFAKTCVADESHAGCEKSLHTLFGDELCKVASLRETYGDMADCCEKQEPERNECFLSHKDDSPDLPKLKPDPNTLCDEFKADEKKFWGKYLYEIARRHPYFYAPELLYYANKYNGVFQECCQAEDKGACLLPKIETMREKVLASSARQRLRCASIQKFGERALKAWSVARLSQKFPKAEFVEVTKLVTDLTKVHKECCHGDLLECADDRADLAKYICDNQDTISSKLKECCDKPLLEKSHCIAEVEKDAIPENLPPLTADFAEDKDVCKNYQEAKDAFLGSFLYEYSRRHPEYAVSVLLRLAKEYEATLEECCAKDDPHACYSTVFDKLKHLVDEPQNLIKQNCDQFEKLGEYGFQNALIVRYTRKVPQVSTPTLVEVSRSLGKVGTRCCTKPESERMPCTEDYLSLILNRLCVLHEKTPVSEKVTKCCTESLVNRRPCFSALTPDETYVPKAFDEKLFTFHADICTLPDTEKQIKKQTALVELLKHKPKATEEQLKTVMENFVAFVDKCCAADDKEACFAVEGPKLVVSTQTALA

Key:
[1] = target: PNKP (polynucleotide kinase-phosphatase), endogenous (human (endogenous in U2OS)) (UniProt Q96T60); assay: proximity ligation; U2OS cells, endogenous proteins; treated or not with FEN1i (10 uM, 1 h), EdU pulse to mark S-phase cells; Duolink PLA with PCNA, PNKP and LIG3 antibodies (1:200); cold MeOH fixation for PCNA/PNKP, 2% PFA otherwise; PNKP antibody alone as negative control
[2] = target: GFP-PNKP (GFP-tagged polynucleotide kinase-phosphatase, wild type) (human) (UniProt Q96T60); assay: proximity ligation; U2OS cells transfected with GFP or GFP-PNKP 24 h before; fixed with cold MeOH; Duolink PLA with GFP and PCNA antibodies (1:200); no antibody as negative control
[3] = target: His-PNKP (purified His-tagged PNKP) (human) (UniProt Q96T60); assay: pull-down; Ni-NTA agarose beads in NETN buffer (20 mM Tris pH 8, 1 mM EDTA, 0.5% IGEPAL CA-630, 500 mM NaCl); 1 ug His-PNKP with 1 ug purified PCNA or 1 ug BSA, 4 C, 1 h; washed 3 times; immunoblot; both purified
[4] = target: PNKP (polynucleotide kinase-phosphatase), endogenous (human (endogenous in U2OS)) (UniProt Q96T60); assay: proximity ligation; U2OS cells, endogenous proteins; treated or not with FEN1i (10 uM, 1 h), EdU pulse to mark S-phase cells; Duolink PLA with PCNA, PNKP and LIG3 antibodies (1:200); cold MeOH fixation for PCNA/PNKP, 2% PFA otherwise; PNKP antibody alone as negative control; remark: listed apart in the source

Molecule: PCNA (proliferating cell nuclear antigen), endogenous (from UniProt P12004 1-261)
binding [1]: binds
binding [2]: binds

Molecule: purified PCNA (Abnova) (from UniProt P12004 1-261)
binding [3]: binds

Now from value to molecule:

binding [3]: no binding (tested: 1 ug BSA)
Molecule: bovine serum albumin (from UniProt P02769 25-607)

binding [4]: binds
B1: LIG3 (DNA ligase III), endogenous (enzyme, UniProt P49916 43-1009)
chain: LLHGHPLFLRRKPVLSFQGSHLRSRATYLVFLPGLHVGLCSGPCEMAEQRFCVDYAKRGTAGCKKCKEKIVKGVCRIGKVVPNPFSESGGDMKEWYHIKCMFEKLERARATTKKIEDLTELEGWEELEDNEKEQITQHIADLSSKAAGTPKKKAVVQAKLTTTGQVTSPVKGASFVTSTNPRKFSGFSAKPNNSGEAPSSPTPKRSLSSSKCDPRHKDCLLREFRKLCAMVADNPSYNTKTQIIQDFLRKGSAGDGFHGDVYLTVKLLLPGVIKTVYNLNDKQIVKLFSRIFNCNPDDMARDLEQGDVSETIRVFFEQSKSFPPAAKSLLTIQEVDEFLLRLSKLTKEDEQQQALQDIASRCTANDLKCIIRLIKHDLKMNSGAKHVLDALDPNAYEAFKASRNLQDVVERVLHNAQEVEKEPGQRRALSVQASLMTPVQPMLAEACKSVEYAMKKCPNGMFSEIKYDGERVQVHKNGDHFSYFSRSLKPVLPHKVAHFKDYIPQAFPGGHSMILDSEVLLIDNKTGKPLPFGTLGVHKKAAFQDANVCLFVFDCIYFNDVSLMDRPLCERRKFLHDNMVEIPNRIMFSEMKRVTKALDLADMITRVIQEGLEGLVLKDVKGTYEPGKRHWLKVKKDYLNEGAMADTADLVVLGAFYGQGSKGGMMSIFLMGCYDPGSQKWCTVTKCAGGHDDATLARLQNELDMVKISKDPSKIPSWLKVNKIYYPDFIVPDPKKAAVWEITGAEFSKSEAHTADGISIRFPRCTRIRDDKDWKSATNLPQLKELYQLSKEKADFTVVAGDEGSSTTGGSSEENKGPSGSAVSRKAPSKPSASTKKAEGKLSNSNSKDGNMQTAKPSAMKVGEKLATKSSPVKVGEKRKAADETLCQTKVLLDIFTGVRLYLPPSTPDFSRLRRYFVAFDGDLVQEFDMTSATHVLGSRDKNPAAQQVSPEWIWACIRKRRLVAPC
